Experimental data: PMC5683033
Results are given in words; binding and its absence hold for the method and conditions named.

Target: pteridine glycosyltransferase from Chlorobium tepidum (Chlorobium tepidum)
Experiment: SEC; Superdex 200, 20 mM Tris-HCl pH 8.0, 150 mM NaCl, 1 mM DTT; size estimated against protein standards; both purified

B1: pteridine glycosyltransferase from Chlorobium tepidum (enzyme)
chain: GAMKKLRIAQVSPLIESVPPKKYGGTERVVYYLTEGLVERGHEVTLFASGDSATSARLIAPVKESLRLGRKIHSTTIMHMLMLSKVYEEMAGEFDIIHSHLEYLTLPYASCSRTPTVLTMHGRLDLPDYADILKRYSSMAWVSISDSQRAPVPDINWVGTIYHGYPENLFEFNPDPEDYFLYLGRFSEEKRPDEAIRLARACKIHLKLAAKIDTADKAYFKAKVEPLLDSPYIEYVGEVGDSRKGELLRNAKALLNTIDWPEPFGLVMIEALACGTPVIVRRCGSSPEVITHGVTGFICDSQLDFIRAIHNIGTISRIACRREFEQRFTLRHMVDNYETLYRKVIAASSATDSLSSLP
modifications: selenomethionine-substituted (selenomethionine in place of methionine)
binding: no binding
